Results reported in PubChem BioAssay AID485314 (National Center for Advancing Translational Sciences (NCATS), 2010).
Where “and” joins values, the source holds several entries; their conditions need not be identical. Equal entries are not always repeated. About 4,500 (1.3%) of roughly 340,000 compounds were called active. The shares of active, inactive and inconclusive entries below differ from those in the screen. Calls come from the whole dose curve; as a rule, active = well fitted inhibition curve with a large enough effect; inconclusive = small, poorly fitted or top-dose-only effect, or another doubt; inactive = no such curve, though single readings can be large or run the other way. A potency beside an inconclusive call is a rough fit, not a confirmed value. The source holds several records for some structures; these can differ, active in one and inactive in another.

The molecules below were run against DNA polymerase beta (Homo sapiens) (UniProt P06746) (assay: qHTS Assay for Inhibitors of DNA Polymerase Beta). Settings: Pol beta primer extension/strand displacement, fluorescence kinetic; activity change, negative = inhibition: at 114 µM (top of the series).
Method in brief: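 10 nM enzyme + cpd, 15 min RT; start with substrate 50 nM final; read 0 min and after 10 min RT. Corrected, normalized data; 4-parameter Hill curve fit.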
% is set by controls: 0 for no effect and ±100 for the full control effect; potency is the fitted concentration of half-maximal effect.

SMILES	Potency	activity change, negative = inhibition
CCN(CC)CCNC(=O)CCn1c(=O)c2cccn2c2cccnc21	inactive	–
CC(C)C1Nc2c(O)cc(Cl)c([N+](=O)[O-])c2C2C=CCC21 (stereo not drawn)	inconclusive: 70.8 µM [inhibitor, single point]	–
Cc1ccc2cc(C)c3nnc(SCC(=O)NCc4ccco4)n3c2c1	active: 44.7 µM	–
N=c1ccn(Cc2ccc([N+](=O)[O-])cc2)cc1	inconclusive: 0.0891 µM [inhibitor, full curve]	–
O=C(CSc1ccsc1[N+](=O)[O-])N1CCN(c2ccc(Cl)cc2)CC1	active: 14.1 µM	–
Cc1ccc(-n2cc(CN3CCNC(=O)CC3)c(-c3cccc(C)c3)n2)cc1	inconclusive: 25.1 µM [inhibitor, single point]	–
CC1=CC2=NC(=O)/C(=C/c3coc4ccc(Cl)cc4c3=O)C(=N)N2O1	inconclusive: 89.1 µM [inhibitor, single point]	–
O=C(N/N=C/c1cccnc1)c1cc(O)c(O)c(O)c1	inconclusive: 8.91 µM [inhibitor, full curve]	–
CCC(=O)c1ccc(OCC(=O)N(C)CC(=O)Nc2cccc(F)c2)cc1	inconclusive: 100 µM [inhibitor, single point]	–
Cc1[nH]c2ccccc2c1N=Nc1cccc(C(=O)O)c1	inactive	–
Cc1cc(C)cc(Nc2cc(=O)n(C3CCCCC3)c(=O)[nH]2)c1	active: 44.7 µM	–
CCN(CC)CCCNc1nc2cc(OC)c(OC)cc2c2nc(-c3ccccc3)nn12	active: 11.2 µM	–
Cc1ccc(C(=O)NC(=C(Cl)Cl)S(=O)(=O)c2ccc(C)cc2)cc1	inconclusive: 89.1 µM [inhibitor, single point]	–
COc1ccc2c(ccn2S(=O)(=O)c2ccccc2)c1	inconclusive: 100 µM [inhibitor, single point]	–
Cc1ccnc(SCC(=O)c2ccc(Br)cc2)c1C#N	inconclusive: 39.8 µM [inhibitor, single point]	–
COc1ccccc1NC(=O)c1cc2cc(Br)ccc2cc1O	active: 22.4 µM	–
CC1=C(CO)C(=O)OC([C@@H](C)C2CC[C@H]3C4C[C@H]5O[C@]56[C@@H](O)C=CC(=O)[C@]6(C)C4CC[C@]23C)C1 (stereo partly drawn)	inconclusive: 50.1 µM [inhibitor, partial curve]	–
COc1ccc(-c2nc3c(c(SCC(=O)Nc4cccc(O)c4)n2)Cc2c(CO)cnc(C)c2O3)cc1	active: 1.58 µM	–
Cc1nc(CNC(=O)c2cc(COc3ccc(F)cc3Cl)on2)cs1	inconclusive: 89.1 µM [inhibitor, single point]	–
COc1cccc(OC)c1C(=O)Nc1sc2c(c1C#N)CCC2	inconclusive: 25.1 µM [inhibitor, partial curve]	–
COc1ccc(Nc2oc(-c3ccc(COc4cccc(C)c4)o3)nc2C#N)cc1	inactive	–
CCc1cccc(NC(=O)CCCn2nc(C)c3c(C)n(-c4ccccc4)nc3c2=O)c1	inconclusive: 8.91 µM [inhibitor, single point]	–
CCOc1ccc(-c2nnc(-c3cccnc3)o2)cc1OCC	inactive	–

SMILES	Potency	activity change, negative = inhibition
CC1=CC(C)[C@@H]2COC(c3ccc(O)cc3)[C@H]1C2C (stereo partly drawn)	inconclusive: 1.78 µM [inhibitor, partial curve]	–
Cc1cccc(C)c1NC(=S)N1CCC(N(C)CC2CCCO2)CC1 (stereo not drawn)	inconclusive: 89.1 µM [inhibitor, single point]	–
O=C(Nc1cccc(C(F)(F)F)c1)c1cc2c(s1)-c1ccccc1OC2	inconclusive: 56.2 µM [inhibitor, partial curve]	–
CC(C)c1nc(SCC(=O)Nc2cccc(S(N)(=O)=O)c2)n[nH]1	inconclusive: 0.141 µM [inhibitor, full curve, poor fit]	–
Cc1cccc(S(=O)(=O)Nc2cccc(-c3ccc(N4CCCCC4)nn3)c2)c1	inactive	–
CCN(CC)CCN(C(=O)c1ccc(N2C(=O)CCC2=O)cc1)c1nc2cc3c(cc2s1)OCO3	inconclusive: 39.8 µM [inhibitor, partial curve, poor fit]	–
CCC(=O)N1CCN(c2cc(NCC3CCCO3)c(F)cc2[N+](=O)[O-])CC1 (stereo not drawn)	inconclusive: 31.6 µM [inhibitor, single point]	–
CC(=O)Nc1ccc(Nc2nc3ccccc3nc2NS(=O)(=O)c2ccccc2)cc1	inconclusive: 0.158 µM [inhibitor, full curve, poor fit]	–
Fc1ccc(Br)cc1C1C=C(c2ccc(Br)s2)Nc2ncnn21 (stereo not drawn)	active: 10 µM	–
c1ccc(-c2nc[nH]c2-c2ccccc2)cc1	–	inconclusive: -104% [inhibitor]
CC1=NN(c2cccc(Cl)c2)C(=O)C12CC(C)=C(C)CS2 (stereo not drawn)	inconclusive: 0.158 µM [inhibitor, full curve, poor fit]	–
Nc1cccc2[nH]c(C(F)(F)F)nc12	inconclusive: 56.2 µM [inhibitor, partial curve, poor fit]	–
CC1CCN(c2nc3c(S(=O)(=O)c4ccccc4)nnn3c3ccc(Cl)cc23)CC1	inconclusive: 28.2 µM [inhibitor, full curve, poor fit]	–
COc1ccccc1CNC(=O)CCNS(=O)(=O)c1ccc2[nH]c(=O)oc2c1	inconclusive: 15.8 µM [inhibitor, partial curve]	–
COc1cccc(Cc2nc3ccccc3nc2SCC(=O)NCCc2ccccc2)c1	inconclusive: 79.4 µM [inhibitor, single point]	–
COc1ccc(C2C=C(c3ccc(F)cc3)Nc3nc(-c4ccc(Cl)cc4)nn32)cc1 (stereo not drawn)	inconclusive: 0.112 µM [inhibitor, full curve]	–
O=C(CCc1ccccc1)N=C1SC2CS(=O)(=O)CC2N1Cc1ccc(F)cc1 (stereo not drawn)	inconclusive: 0.141 µM [inhibitor, full curve, poor fit]	–
COc1ccc(Cl)cc1NC(=O)c1oc(C)nc1C	inconclusive: 39.8 µM [inhibitor, partial curve]	–
O=C(Nc1cccc(-n2cnnn2)c1)c1cccnc1	–	inconclusive: -79.1% [inhibitor]
COc1ccc(C(=O)Nc2cccc(-c3cn4ccsc4n3)c2)cc1OC	inconclusive: 35.5 µM [inhibitor, full curve]	–
COc1cc(CCNc2ccc3nnc(-c4ccccc4)n3n2)cc(OC)c1OC	inconclusive: 50.1 µM [inhibitor, partial curve]	–
O=C(O)c1ccc(N/N=C/c2ccc(OC(=O)c3ccccc3Cl)cc2)cc1	inconclusive: 63.1 µM [inhibitor, single point]	–
CCn1c(/C=C/c2c[nH]c3ccccc23)nc2ccccc2c1=O	inconclusive: 8.91 µM [inhibitor, full curve]	–

SMILES	Potency	activity change, negative = inhibition
Brc1ccc(C2=CC(c3ccco3)n3ncnc3N2)cc1 (stereo not drawn)	inconclusive: 39.8 µM [inhibitor, partial curve]	–
Cc1nc2nc(COc3ccccc3)[nH]n2c(=O)c1Cc1ccccc1	inconclusive: 89.1 µM [inhibitor, single point]	–
CCN(CC)c1ccc2c(-c3ccc(S(=O)(=O)O)cc3S(=O)(=O)[O-])c3ccc(=[N+](CC)CC)cc-3oc2c1	active: 5.01 µM	–
CCCn1c(S(=O)(=O)O)nc2ccccc21	inactive	–
CC1(C)S[C@@H]2[C@H](NC(=O)[C@H](N)c3ccccc3)C(=O)N2[C@H]1C(=O)O	inconclusive: 12.6 µM [inhibitor, partial curve] and inconclusive: 20 µM [inhibitor, full curve, poor fit]	–
COc1cc2cc(-c3ccc(O)cc3O)nc(C)c2cc1OC	inconclusive: 70.8 µM [inhibitor, single point]	–
O=C(Nc1ccccc1Sc1ccccc1)c1ccc(F)cc1	inactive	–
Cc1ccccc1C(=O)NC(=S)Nc1ccccc1C(=O)O	inconclusive: 79.4 µM [inhibitor, single point]	–
Nc1cnn(C2CCCO2)c(=O)n1 (stereo not drawn)	inconclusive: 3.55 µM [inhibitor, full curve]	–
CCOc1ccccc1NC(=O)CN(c1cc(C)cc(C)c1)S(=O)(=O)c1c(C)noc1C	inconclusive: 6.31 µM [inhibitor, full curve]	–
O=C(OC(C(=O)NCc1ccco1)c1ccc(Cl)cc1)c1cccs1 (stereo not drawn)	–	inconclusive: -39.7% [inhibitor]
COc1cccc(/C=C(/C#N)c2ccc(Cl)cc2)c1OCc1cccc(C(=O)O)c1	inconclusive: 39.8 µM [inhibitor, partial curve]	–
NS(=O)(=O)c1cc([N+](=O)[O-])ccc1NCc1cccnc1	inactive	–
CCc1nc2cccnc2n1-c1ccc(CC(=O)Nc2ccccc2Cl)cc1	inactive	–
Cc1c(C(=O)NC2CCCCC2)oc2c1C(=O)CC(C)(C)C2	inconclusive: 5.62 µM [inhibitor, full curve]	–
COc1cc(/C=C/C(=O)OCC(=O)Nc2ccc([N+](=O)[O-])cc2)ccc1O	inactive	–
CCOC(=O)c1cccc(NC(=O)NCCc2c(C)nn(C)c2C)c1	inactive	–
CN(C)CCNC(=S)Nc1ccccc1Cl	inactive	–
CC1(C)CC(=O)C2=C(C1)NC(SCC(=O)Nc1ccccc1)=C(C#N)C21CCCCC1	inconclusive: 89.1 µM [inhibitor, single point]	–
COc1ccc(CNC(=O)COC(=O)c2cc(-c3ccco3)nc3ccccc23)cc1	active: 7.08 µM	–
O=C(CSc1ccc(Br)c2cccc(Cl)c12)Nc1ccc(S(=O)(=O)Nc2nccs2)cc1	active: 50.1 µM	–
Cc1ccc(-n2nc3c(c2NC(=O)/C=C\c2ccc4c(c2)OCO4)CSC3)c(C)c1	inconclusive: 50.1 µM [inhibitor, partial curve]	–

Some of the entries so far, in markdown:

| SMILES | Potency | activity change, negative = inhibition |
| --- | --- | --- |
| c1ccc(-c2nc[nH]c2-c2ccccc2)cc1 | – | inconclusive: -104% [inhibitor] |
| CC1=NN(c2cccc(Cl)c2)C(=O)C12CC(C)=C(C)CS2 (stereo not drawn) | inconclusive: 0.158 µM [inhibitor, full curve, poor fit] | – |
